The values that follow come from paper PMC2259325.

Amino acid sequences for entries named in this document (tags omitted). A change or cut given only in a name is not applied to a line headed by its entry. Chains listed by the source or under a name are the forms on record and can include a tag or linker. Residues count along the entry.
GST-Fyn SH3 domain fusion protein (P06241, residues 82-143): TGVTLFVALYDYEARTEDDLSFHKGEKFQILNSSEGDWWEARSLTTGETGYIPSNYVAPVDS
GST-Fyn SH3 domain L112V (P06241, form named): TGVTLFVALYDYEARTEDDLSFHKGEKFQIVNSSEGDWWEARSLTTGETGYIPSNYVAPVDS
GST-Fyn SH3 domain E129Q (P06241, form named): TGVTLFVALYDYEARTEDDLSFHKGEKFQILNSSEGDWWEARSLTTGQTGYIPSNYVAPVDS
GST-Fyn SH3 domain N136A/Y137A (P06241, form named): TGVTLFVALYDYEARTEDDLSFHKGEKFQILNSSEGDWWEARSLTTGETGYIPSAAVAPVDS
GST-Fyn SH3 domain Y91A/Y93A (P06241, form named): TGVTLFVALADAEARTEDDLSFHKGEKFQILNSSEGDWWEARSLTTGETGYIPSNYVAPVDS
GST-Fyn SH3 domain D100A (P06241, form named): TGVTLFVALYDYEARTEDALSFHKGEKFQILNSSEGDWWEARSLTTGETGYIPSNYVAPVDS
GST-Fyn SH3 domain W119A (P06241, form named): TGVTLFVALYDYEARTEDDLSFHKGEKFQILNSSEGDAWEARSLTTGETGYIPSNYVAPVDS
GST-Fyn SH3 domain D99A (P06241, form named): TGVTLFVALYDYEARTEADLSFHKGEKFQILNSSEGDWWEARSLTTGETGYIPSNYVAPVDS
GST-Fyn SH3 domain E121L (P06241, form named): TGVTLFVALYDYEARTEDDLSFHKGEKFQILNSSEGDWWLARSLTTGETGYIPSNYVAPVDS
GST-Fyn SH3 domain A95S (P06241, form named): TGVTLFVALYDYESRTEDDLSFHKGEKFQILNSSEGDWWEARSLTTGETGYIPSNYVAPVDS

One assay has as its target GST-Fyn SH3 domain L112V (UniProt P06241). Kind of assay: ELISA; 1 μg/well GST-SH3 fusion coated on microplates; 0.5 μg/well purified NS5A in PBS-T, 2 h, 4°C; detection with sheep anti-NS5A serum; normalised to GST loading ELISA; both purified.
The target of the next assay is GST-Fyn SH3 domain E129Q (UniProt P06241). Described as above.
The target of assay [1] is GST-Fyn SH3 domain N136A/Y137A (UniProt P06241). Described as above.
The target of assay [2] is GST-Fyn SH3 domain fusion protein (wild type) (UniProt P06241). Described as above.
For assay [3], the target named is GST-Fyn SH3 domain Y91A/Y93A (UniProt P06241). Described as above.
Assay [4] addresses GST-Fyn SH3 domain D100A (UniProt P06241). Described as above.
Assay [5] has as its target GST-Fyn SH3 domain W119A (UniProt P06241). The description is as above.
The target in assay [6] is GST-Fyn SH3 domain D99A (UniProt P06241). Described as above.
The target of another assay is GST-Fyn SH3 domain E121L (UniProt P06241). Described as above.
For a further assay, the target named is GST-Fyn SH3 domain A95S (UniProt P06241). The description is as above.
The target of assay [7] is GST-Fyn SH3 domain N136A/Y137A (UniProt P06241). Kind of assay: pull-down; GST-SH3 domain fusion proteins on glutathione agarose beads; 5 μg purified NS5A, 4°C, 3 h; washes in GLB with 0.5 M KCl and GLB; elution with 20 mM reduced glutathione; western blot for NS5A; both purified. On the technique in general: Immunoblotting shows a protein as a band on a membrane.
Assay [8] deals with GST-Fyn SH3 domain fusion protein (wild type) (UniProt P06241). Described as above.
Assay [9] concerns the target GST-Fyn SH3 domain Y91A/Y93A (UniProt P06241). Described as above.
Assay [10] has as its target GST-Fyn SH3 domain D100A (UniProt P06241). The description is as above.
Assay [11] concerns the target GST-Fyn SH3 domain W119A (UniProt P06241). Described as above.
The target in assay [12] is GST-Fyn SH3 domain D99A (UniProt P06241). Described as above.

No constants are given. Whether binding was seen depends on the method and setting. For some of these results: A result given as binding can be weak or reduced; the word gives no strength.

On to “NS5A(Δ32), N-terminally truncated hepatitis C virus non-structural 5A protein (from UniProt O92972) (domain or fragment)”, for which the binding entry with GST-Fyn SH3 domain L112V is recorded as “binds”; with GST-Fyn SH3 domain E129Q, “binds”; in assay [1], “no binding (tested: 0.5 μg/well of purified NS5A in 50 μl)”; in [2], “binds”; in assay [3] it was “no binding (tested: 0.5 μg/well of purified NS5A in 50 μl)”; in the assay with GST-Fyn SH3 domain D100A [4], “binds”. Further, the binding entry with GST-Fyn SH3 domain W119A [5] is listed as “no binding (tested: 0.5 μg/well of purified NS5A in 50 μl)”; with GST-Fyn SH3 domain D99A [6], “binds”; in the assay with GST-Fyn SH3 domain E121L, “binds”; with GST-Fyn SH3 domain A95S, “binds”; in [7] it was “no binding (tested: 5 μg of purified NS5A)”; in assay [8], “binds”. In addition, the binding result is given as “no binding (tested: 5 μg of purified NS5A)” in assay [9], “binds” in the assay with GST-Fyn SH3 domain D100A [10], “no binding (tested: 5 μg of purified NS5A)” with GST-Fyn SH3 domain W119A [11] and “binds” with GST-Fyn SH3 domain D99A [12].
